Test results as given in PMC7909667.
No constants are given. Whether binding was seen depends on the method and setting. Binding seen in cells or lysates may run through a third protein. Some results given as binding are weak or reduced against the parent protein; the word gives no strength. For part of these data: Where a sequence is shown, tags or fusion partners need not be part of it. Each block holds one substance with its values, some of them ahead of it.

Protein sequences, listed by entry. Tags and fused reporters are not part of them. Residues count along the entry.
UniProt E9Q414, residues 28-4505: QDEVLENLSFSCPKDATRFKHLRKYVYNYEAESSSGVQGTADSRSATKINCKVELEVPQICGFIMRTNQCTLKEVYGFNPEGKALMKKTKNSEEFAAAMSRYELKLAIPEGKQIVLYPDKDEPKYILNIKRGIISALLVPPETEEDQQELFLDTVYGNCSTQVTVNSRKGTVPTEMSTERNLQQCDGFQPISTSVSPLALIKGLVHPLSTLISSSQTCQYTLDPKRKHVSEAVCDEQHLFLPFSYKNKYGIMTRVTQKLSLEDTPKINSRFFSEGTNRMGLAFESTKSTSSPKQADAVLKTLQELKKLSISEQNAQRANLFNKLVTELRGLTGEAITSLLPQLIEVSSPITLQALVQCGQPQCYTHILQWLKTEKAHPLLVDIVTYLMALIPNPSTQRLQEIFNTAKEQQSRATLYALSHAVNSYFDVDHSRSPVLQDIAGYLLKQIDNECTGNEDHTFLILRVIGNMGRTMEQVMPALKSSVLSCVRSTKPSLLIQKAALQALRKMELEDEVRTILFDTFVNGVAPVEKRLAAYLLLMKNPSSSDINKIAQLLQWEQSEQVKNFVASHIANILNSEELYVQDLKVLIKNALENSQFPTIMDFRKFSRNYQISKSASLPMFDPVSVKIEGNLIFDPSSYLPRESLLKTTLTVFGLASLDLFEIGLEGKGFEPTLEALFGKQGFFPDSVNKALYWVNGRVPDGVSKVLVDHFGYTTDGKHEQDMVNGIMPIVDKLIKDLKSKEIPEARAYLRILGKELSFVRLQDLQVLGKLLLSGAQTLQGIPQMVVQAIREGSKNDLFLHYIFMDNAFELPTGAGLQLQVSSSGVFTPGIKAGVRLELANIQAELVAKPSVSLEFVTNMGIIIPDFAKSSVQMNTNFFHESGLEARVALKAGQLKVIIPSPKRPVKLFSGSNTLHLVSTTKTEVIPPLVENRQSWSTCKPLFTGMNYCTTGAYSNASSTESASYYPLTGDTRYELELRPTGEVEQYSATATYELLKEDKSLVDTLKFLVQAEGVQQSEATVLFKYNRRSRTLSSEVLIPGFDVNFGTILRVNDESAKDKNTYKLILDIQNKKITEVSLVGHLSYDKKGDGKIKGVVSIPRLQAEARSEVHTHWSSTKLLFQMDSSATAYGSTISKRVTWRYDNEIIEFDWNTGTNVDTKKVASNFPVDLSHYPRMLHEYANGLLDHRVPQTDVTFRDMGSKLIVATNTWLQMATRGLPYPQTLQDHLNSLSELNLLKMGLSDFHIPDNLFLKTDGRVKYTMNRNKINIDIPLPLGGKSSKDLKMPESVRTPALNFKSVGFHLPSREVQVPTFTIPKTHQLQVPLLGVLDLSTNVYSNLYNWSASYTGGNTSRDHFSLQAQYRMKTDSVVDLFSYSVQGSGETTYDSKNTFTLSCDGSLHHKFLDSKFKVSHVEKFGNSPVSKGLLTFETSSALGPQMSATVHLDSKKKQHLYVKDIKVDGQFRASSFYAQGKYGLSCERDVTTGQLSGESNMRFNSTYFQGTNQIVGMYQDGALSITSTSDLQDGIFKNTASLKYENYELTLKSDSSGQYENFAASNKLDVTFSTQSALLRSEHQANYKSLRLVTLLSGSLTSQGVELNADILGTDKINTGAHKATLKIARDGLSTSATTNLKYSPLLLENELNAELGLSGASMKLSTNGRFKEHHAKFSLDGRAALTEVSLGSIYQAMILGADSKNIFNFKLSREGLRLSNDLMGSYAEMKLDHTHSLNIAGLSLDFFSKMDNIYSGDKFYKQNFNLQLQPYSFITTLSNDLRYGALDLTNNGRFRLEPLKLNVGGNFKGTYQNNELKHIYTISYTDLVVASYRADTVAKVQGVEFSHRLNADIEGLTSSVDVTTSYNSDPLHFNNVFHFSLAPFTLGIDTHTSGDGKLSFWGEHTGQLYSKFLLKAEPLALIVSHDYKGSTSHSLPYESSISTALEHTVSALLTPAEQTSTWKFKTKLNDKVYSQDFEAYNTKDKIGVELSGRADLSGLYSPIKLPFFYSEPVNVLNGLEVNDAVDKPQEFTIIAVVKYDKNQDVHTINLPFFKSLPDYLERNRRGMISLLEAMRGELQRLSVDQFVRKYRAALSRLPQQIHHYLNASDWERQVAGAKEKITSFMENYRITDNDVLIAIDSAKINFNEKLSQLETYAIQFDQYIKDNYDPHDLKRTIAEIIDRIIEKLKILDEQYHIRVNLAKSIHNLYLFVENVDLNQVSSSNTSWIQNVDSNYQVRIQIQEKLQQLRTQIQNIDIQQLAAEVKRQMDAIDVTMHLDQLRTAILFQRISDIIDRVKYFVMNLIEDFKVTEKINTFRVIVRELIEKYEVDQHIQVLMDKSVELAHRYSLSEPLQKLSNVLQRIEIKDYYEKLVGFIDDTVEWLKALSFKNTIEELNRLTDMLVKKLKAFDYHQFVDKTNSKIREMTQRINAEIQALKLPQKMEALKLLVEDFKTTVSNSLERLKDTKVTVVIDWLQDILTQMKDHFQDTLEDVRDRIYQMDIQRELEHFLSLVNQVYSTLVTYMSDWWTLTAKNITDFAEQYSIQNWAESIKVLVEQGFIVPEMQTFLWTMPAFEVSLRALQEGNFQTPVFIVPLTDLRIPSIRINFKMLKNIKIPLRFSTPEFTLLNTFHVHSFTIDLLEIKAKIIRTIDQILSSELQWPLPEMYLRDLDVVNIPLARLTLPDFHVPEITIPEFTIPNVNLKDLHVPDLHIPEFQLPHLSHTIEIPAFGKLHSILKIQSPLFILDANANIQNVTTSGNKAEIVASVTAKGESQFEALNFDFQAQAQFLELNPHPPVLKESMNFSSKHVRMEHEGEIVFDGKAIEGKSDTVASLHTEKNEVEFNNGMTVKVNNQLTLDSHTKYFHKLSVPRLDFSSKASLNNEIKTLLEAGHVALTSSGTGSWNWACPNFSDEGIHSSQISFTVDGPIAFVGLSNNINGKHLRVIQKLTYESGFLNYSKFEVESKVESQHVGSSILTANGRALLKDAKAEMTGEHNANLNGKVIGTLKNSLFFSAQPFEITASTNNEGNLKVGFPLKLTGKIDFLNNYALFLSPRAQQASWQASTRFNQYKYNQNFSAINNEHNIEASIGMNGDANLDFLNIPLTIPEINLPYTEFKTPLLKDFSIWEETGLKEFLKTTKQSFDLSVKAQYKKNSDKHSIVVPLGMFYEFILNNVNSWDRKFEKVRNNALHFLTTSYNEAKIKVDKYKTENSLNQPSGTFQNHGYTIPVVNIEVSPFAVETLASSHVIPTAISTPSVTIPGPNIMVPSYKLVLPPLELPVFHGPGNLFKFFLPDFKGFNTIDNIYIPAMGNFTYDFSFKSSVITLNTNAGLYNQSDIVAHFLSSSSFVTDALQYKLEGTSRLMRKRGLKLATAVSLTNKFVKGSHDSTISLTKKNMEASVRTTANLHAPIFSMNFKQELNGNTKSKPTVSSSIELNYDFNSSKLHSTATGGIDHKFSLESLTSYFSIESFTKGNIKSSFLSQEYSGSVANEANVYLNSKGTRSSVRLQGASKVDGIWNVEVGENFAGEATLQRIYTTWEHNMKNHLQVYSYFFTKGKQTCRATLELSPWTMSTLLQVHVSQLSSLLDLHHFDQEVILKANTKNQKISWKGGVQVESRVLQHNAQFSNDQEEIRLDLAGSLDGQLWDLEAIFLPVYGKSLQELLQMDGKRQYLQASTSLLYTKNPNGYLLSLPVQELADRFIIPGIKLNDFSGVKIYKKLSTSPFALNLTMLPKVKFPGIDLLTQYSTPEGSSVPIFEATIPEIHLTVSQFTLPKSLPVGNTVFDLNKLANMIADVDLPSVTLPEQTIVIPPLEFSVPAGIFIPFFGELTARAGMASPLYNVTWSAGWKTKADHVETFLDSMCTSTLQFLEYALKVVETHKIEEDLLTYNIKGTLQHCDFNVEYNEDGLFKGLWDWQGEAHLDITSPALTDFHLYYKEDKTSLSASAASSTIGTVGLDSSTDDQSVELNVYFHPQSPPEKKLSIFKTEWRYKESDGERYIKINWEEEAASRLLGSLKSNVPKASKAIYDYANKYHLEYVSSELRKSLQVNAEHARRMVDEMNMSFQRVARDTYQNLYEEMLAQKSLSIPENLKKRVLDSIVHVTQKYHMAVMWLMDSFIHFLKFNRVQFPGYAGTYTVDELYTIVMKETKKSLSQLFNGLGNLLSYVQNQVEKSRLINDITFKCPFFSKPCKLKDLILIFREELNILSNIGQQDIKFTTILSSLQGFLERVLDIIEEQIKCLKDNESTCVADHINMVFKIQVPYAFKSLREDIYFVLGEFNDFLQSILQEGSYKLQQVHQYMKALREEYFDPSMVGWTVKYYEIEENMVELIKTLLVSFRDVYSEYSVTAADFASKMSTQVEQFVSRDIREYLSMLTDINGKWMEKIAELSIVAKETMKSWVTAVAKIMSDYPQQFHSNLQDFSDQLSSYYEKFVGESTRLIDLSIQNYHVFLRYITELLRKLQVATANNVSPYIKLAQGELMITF
UniProt P20029, residues 20-655: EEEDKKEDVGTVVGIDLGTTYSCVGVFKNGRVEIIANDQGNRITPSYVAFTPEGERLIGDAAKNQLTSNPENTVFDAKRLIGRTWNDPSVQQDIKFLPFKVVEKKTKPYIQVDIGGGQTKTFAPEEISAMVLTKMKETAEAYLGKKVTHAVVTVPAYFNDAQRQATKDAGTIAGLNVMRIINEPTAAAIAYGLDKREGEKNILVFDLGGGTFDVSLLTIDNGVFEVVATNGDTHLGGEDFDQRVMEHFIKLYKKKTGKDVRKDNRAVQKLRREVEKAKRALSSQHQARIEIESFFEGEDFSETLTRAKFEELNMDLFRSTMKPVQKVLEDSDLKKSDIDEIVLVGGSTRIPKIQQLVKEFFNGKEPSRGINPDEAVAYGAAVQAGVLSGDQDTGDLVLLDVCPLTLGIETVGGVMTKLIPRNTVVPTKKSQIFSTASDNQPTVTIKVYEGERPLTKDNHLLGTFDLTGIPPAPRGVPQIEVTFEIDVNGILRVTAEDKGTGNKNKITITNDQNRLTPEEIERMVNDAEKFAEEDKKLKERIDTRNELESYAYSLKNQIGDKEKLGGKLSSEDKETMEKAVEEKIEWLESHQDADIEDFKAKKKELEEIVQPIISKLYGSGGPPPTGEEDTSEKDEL
UniProt Q9UKV5: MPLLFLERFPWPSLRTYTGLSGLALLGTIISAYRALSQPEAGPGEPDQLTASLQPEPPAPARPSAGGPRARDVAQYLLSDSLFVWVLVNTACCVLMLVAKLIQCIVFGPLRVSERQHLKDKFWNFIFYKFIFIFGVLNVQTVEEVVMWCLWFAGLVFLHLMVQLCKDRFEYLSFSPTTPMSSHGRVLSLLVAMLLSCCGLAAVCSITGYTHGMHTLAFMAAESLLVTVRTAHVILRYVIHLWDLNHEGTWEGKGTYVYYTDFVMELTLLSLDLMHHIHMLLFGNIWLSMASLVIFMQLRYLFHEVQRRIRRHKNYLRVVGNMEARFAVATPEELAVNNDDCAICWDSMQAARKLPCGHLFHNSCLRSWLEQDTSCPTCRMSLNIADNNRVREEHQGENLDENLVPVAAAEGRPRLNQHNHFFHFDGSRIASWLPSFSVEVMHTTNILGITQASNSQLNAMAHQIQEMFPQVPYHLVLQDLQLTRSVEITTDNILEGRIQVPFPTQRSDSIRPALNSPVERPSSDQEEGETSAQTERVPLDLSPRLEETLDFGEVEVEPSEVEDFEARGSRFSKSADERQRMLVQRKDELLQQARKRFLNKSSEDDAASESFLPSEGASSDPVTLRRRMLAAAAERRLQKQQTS
UniProt Q9R049: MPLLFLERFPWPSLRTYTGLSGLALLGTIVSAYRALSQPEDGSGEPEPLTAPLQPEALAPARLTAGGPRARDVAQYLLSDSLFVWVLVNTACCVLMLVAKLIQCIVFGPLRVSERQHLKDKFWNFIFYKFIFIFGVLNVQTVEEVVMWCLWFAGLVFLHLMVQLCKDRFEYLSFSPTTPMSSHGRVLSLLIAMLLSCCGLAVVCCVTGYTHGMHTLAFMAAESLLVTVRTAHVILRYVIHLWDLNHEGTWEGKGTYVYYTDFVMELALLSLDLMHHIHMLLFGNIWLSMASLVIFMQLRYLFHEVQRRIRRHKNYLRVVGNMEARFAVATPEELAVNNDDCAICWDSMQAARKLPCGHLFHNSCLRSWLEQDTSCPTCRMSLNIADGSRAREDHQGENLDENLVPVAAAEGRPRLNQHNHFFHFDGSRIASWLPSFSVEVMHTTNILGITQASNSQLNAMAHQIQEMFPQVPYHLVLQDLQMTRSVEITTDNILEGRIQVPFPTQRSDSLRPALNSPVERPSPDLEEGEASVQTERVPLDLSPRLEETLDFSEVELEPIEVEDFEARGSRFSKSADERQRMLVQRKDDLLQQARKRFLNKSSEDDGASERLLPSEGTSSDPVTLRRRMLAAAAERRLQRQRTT

Assays:
[1] = target: T1, liver-specific zona pellucida domain-containing protein (LZP), ectopic, in HepG2 cells (UniProt Q8WWZ8); assay: co-IP; reciprocal co-immunoprecipitation of ectopic LZP and apoB in mouse hepatocytes and in HepG2 cells overexpressing LZP
T1 sequence: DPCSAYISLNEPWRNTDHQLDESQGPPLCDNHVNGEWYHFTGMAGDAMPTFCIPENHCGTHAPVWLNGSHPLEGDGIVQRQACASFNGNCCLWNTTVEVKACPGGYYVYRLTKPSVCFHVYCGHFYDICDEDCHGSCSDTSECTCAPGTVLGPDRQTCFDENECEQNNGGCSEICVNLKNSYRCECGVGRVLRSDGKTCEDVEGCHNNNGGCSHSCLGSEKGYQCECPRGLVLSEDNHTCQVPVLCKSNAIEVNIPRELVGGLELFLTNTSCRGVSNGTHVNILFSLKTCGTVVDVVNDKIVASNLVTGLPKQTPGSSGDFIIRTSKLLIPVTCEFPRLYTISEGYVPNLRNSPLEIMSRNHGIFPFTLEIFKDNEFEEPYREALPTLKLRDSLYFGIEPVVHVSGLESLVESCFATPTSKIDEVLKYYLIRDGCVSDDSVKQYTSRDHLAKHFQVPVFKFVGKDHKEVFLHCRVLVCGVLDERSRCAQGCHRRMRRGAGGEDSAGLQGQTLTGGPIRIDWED

[2] = target: T2, liver-specific zona pellucida domain-containing protein (LZP), ectopic, in mouse hepatocytes (mouse) (UniProt Q8R4V5); assay: as above
T2 sequence: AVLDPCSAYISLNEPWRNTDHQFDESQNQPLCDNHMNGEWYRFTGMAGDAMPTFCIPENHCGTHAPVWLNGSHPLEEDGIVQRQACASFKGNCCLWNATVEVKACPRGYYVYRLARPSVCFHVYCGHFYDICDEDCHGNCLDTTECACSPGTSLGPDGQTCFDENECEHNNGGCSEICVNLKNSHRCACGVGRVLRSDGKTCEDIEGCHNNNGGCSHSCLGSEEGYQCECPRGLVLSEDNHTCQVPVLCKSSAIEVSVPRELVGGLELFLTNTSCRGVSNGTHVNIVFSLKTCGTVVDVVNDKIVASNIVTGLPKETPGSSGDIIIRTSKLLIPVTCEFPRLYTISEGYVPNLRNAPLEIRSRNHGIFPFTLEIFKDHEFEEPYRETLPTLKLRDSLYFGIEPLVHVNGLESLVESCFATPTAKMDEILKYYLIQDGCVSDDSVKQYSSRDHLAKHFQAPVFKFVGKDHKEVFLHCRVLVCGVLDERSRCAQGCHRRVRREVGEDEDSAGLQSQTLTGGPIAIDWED

[3] = target: T3, liver-specific zona pellucida domain-containing protein (LZP), endogenous, mouse hepatocytes (mouse (endogenous in mouse hepatocytes)) (UniProt Q8R4V5); assay: co-IP; co-immunoprecipitation of LZP with apoB, MTTP or BIP in hepatocytes isolated from WT mice
T3 sequence: T2 sequence

[4] = target: T1, liver-specific zona pellucida domain-containing protein (LZP), ectopic, in HepG2 cells; assay: co-IP; reciprocal co-immunoprecipitation with indicated antibodies in HepG2 cells ectopically expressing AMFR and LZP
[5] = target: apolipoprotein B (apoB), endogenous, mouse hepatocytes or liver (mouse (endogenous in mouse hepatocytes)) (UniProt E9Q414); assay: co-IP; apoB immunoprecipitated, AMFR blotted; liver or hepatocytes of WT and Lzp-/- mice

binding [1]: binds
Substance: apolipoprotein B (apoB), endogenous, HepG2 cells (from UniProt P04114 28-4563)

binding [2]: binds
binding [3]: binds
Substance: apolipoprotein B (apoB), endogenous, mouse hepatocytes or liver (from UniProt E9Q414 28-4505)

binding [3]: binds
Substance: BIP, ER-resident luminal chaperone, mouse hepatocytes (from UniProt P20029 20-655)

binding [4]: binds
Substance: AMFR (E3 ligase gp78), ectopic, in HepG2 cells (from UniProt Q9UKV5 1-643) (enzyme)

binding [5]: binds
Substance: AMFR (E3 ligase gp78), endogenous, mouse liver or hepatocytes (from UniProt Q9R049 1-643) (enzyme)
